No constants are given. Whether binding was seen depends on the method and setting. For some assays here: Binding calls can cover weak binding; strength is not graded here.

Assay [1] addresses cynomolgus monkey GITR at the cell surface (cynomolgus monkey). Nature of the assay: flow cytometry on murine cells stably transfected with cyno GITR, IgG1 13.7-10000 ng/ml, MFI.
In assay [2] the target is Insulin. Nature of the assay: ELISA on coated insulin.
For assay [3], the target named is cynomolgus monkey GITR at the cell surface (cynomolgus monkey). Nature of the assay: flow cytometry, cyno GITR-transfected murine blastoma cells, 10,000-13.7 ng/ml.
The target in assay [4] is Insulin. Nature of the assay: ELISA on coated insulin, IgG 0.001-1 µg/ml, OD 450 nm.

B1: D-A6 IgG1 (antibody, V domains shown)
VH: EVQLVESGGGLVQPGGSLRLSCAASGFSLSTSGYGVGWVRQAPGKGLEWLAHIWWDDDKYYVDSVKGRFTISRDNAKNSLYLQMNSLRAEDTAVYYCARTRQYFPFAYWGQGTLVTVSS
VL: EIVLTQSPATLSLSPGERATLSCRASQSVGSNLAWYQQKPGQAPRLLIYSASYRYTGIPARFSGSGSGTDFTLTISSLEPEDFAVYYCQQYSTDPLTFGGGTKVEIK
Take B1: the binding entry in assay [1] is recorded as “binds”; in assay [2], “no binding”; in assay [3], “binds”; in assay [4], “no binding (tested: 1 µg/ml)”.

B2: G-G10 IgG1 (antibody, V domains shown)
VH: EVQLVESGGGLVQPGGSLRLSCAASGFSLSTFGYGVGWVRQAPGKGLEWLAHIWWDDDKYYVDSVKGRFTISRDNAKNSLYLQMNSLRAEDTAVYYCARTRQYFPFAYWGQGTLVTVSS
VL: EIVLTQSPATLSLSPGERATLSCRASQSVGTNLAWYQQKPGQAPRLLIYYASYRYTGIPARFSGSGSGTDFTLTISSLEPEDFAVYYCQQYSNDPLTFGGGTKVEIK
As to B2, the binding result in assay [1] and in assay [3] was “binds” throughout.

B3: I-C2 IgG1 (antibody, V domains shown)
VH: EVQLVESGGGLVQPGGSLRLSCAASGFSLSTSGYGVGWVRQAPGKGLEWLAHIWWDDDKYYVDSVKGRFTISRDNAKNSLYLQMNSLRAEDTAVYYCARTRLYFPFAYWGQGTLVTVSS
VL: EIVLTQSPATLSLSPGERATLSCRASQNVGSNLAWYQQKPGQAPRLLIYSASNRYSGIPARFSGSGSGTDFTLTISSLEPEDFAVYYCQQYSTDPLTFGGGTKVEIK
As to B3, the binding entry in assay [1] and in assay [3] was “binds” in each case.
